Test results as given in publication PMC5031922.

Tests used:
[1] = biological target: T1, affinity-tagged G9a (human), Q96KQ7; assay: affinity purification with mass spectrometry; stable lentivirus-based expression of epitope-tagged bait in HEK293; replicate two-step enrichment from cell lysates; conditions: remark: other sources report otherwise
T1 chain: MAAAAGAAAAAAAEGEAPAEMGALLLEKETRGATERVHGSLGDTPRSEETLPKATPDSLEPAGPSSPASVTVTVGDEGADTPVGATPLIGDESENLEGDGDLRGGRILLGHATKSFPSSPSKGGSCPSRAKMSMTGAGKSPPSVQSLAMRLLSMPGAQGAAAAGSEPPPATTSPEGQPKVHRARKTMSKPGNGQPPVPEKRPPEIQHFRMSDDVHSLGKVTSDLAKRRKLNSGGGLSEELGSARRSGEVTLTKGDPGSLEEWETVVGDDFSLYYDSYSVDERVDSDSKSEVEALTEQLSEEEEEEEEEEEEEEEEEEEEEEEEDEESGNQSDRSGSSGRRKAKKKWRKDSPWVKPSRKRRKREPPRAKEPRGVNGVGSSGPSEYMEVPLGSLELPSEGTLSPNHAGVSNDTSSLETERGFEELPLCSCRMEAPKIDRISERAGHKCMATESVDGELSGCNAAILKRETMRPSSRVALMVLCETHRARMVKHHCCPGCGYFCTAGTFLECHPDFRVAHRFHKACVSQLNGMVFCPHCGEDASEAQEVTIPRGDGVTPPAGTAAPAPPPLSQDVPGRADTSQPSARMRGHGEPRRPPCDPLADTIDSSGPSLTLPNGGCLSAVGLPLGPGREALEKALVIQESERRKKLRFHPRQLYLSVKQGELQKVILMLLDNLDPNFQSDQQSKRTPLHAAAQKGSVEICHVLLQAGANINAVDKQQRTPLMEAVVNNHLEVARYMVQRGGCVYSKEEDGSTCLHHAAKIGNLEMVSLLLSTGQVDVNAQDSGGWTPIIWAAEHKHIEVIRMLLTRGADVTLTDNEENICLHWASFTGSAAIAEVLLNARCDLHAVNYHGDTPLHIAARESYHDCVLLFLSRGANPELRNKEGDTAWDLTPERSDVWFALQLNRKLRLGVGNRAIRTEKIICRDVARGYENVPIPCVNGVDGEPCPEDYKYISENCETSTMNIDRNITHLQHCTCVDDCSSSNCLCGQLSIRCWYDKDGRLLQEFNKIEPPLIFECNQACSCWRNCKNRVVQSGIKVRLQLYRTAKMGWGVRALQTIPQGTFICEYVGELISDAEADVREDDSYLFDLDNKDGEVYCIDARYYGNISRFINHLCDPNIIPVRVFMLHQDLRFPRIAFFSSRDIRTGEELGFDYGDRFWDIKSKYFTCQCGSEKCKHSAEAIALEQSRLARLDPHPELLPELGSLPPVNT

[2] = biological target: affinity-tagged G9a (human) (UniProt Q96KQ7); assay: as above

Row | Binder | binding [1] | binding [2]
1 | GLP, Q9H9B1 1-1298 (enzyme) MAAADAEAVPARGEPQQDCCVKTELLGEETPMAADEGSAEKQAGEAHMAADGETNGSCENSDASSHANAAKHTQDSARVNPQDGTNTLTRIAENGVSERDSEAAKQNHVTADDFVQTSVIGSNGYILNKPALQAQPLRTTSTLASSLPGHAAKTLPGGAGKGRTPSAFPQTPAAPPATLGEGSADTEDRKLPAPGADVKVHRARKTMPKSVVGLHAASKDPREVREARDHKEPKEEINKNISDFGRQQLLPPFPSLHQSLPQNQCYMATTKSQTACLPFVLAAAVSRKKKRRMGTYSLVPKKKTKVLKQRTVIEMFKSITHSTVGSKGEKDLGASSLHVNGESLEMDSDEDDSEELEEDDGHGAEQAAAFPTEDSRTSKESMSEADRAQKMDGESEEEQESVDTGEEEEGGDESDLSSESSIKKKFLKRKGKTDSPWIKPARKRRRRSRKKPSGALGSESYKSSAGSAEQTAPGDSTGYMEVSLDSLDLRVKGILSSQAEGLANGPDVLETDGLQEVPLCSCRMETPKSREITTLANNQCMATESVDHELGRCTNSVVKYELMRPSNKAPLLVLCEDHRGRMVKHQCCPGCGYFCTAGNFMECQPESSISHRFHKDCASRVNNASYCPHCGEESSKAKEVTIAKADTTSTVTPVPGQEKGSALEGRADTTTGSAAGPPLSEDDKLQGAASHVPEGFDPTGPAGLGRPTPGLSQGPGKETLESALIALDSEKPKKLRFHPKQLYFSARQGELQKVLLMLVDGIDPNFKMEHQNKRSPLHAAAEAGHVDICHMLVQAGANIDTCSEDQRTPLMEAAENNHLEAVKYLIKAGALVDPKDAEGSTCLHLAAKKGHYEVVQYLLSNGQMDVNCQDDGGWTPMIWATEYKHVDLVKLLLSKGSDINIRDNEENICLHWAAFSGCVDIAEILLAAKCDLHAVNIHGDSPLHIAARENRYDCVVLFLSRDSDVTLKNKEGETPLQCASLNSQVWSALQMSKALQDSAPDRPSPVERIVSRDIARGYERIPIPCVNAVDSEPCPSNYKYVSQNCVTSPMNIDRNITHLQYCVCIDDCSSSNCMCGQLSMRCWYDKDGRLLPEFNMAEPPLIFECNHACSCWRNCRNRVVQNGLRARLQLYRTRDMGWGVRSLQDIPPGTFVCEYVGELISDSEADVREEDSYLFDLDNKDGEVYCIDARFYGNVSRFINHHCEPNLVPVRVFMAHQDLRFPRIAFFSTRLIEAGEQLGFDYGERFWDIKGKLFSCRCGSPKCRHSSAALAQRQASAAQEAQEDGLPDTSSAAAADPL | binds | 
2 | ZNF644 (endogenous) (protein, UniProt Q9H582 1-1327) MRSFLQQDVNKTKSRLNVLNGLANNMDDLKINTDITGAKEELLDDNNFISDKESGVHKPKDCQTSFQKNNTLTLPEELSKDKSENALSGGQSSLFIHAGAPTVSSENFILPKGAAVNGPVSHSSLTKTSNMNKGSVSLTTGQPVDQPTTESCSTLKVAADLQLSTPQKASQHQVLFLLSDVAHAKNPTHSNKKLPTSASVGCDIQNSVGSNIKSDGTLINQVEVGEDGEDLLVKDDCVNTVTGISSGTDGFRSENDTNWDPQKEFIQFLMTNEETVDKAPPHSKIGLEKKRKRKMDVSKITRYTEDCFSDSNCVPNKSKMQEVDFLEQNEELQAVDSQKYALSKVKPESTDEDLESVDAFQHLIYNPDKCGEESSPVHTSTFLSNTLKKKCEESDSESPATFSTEEPSFYPCTKCNVNFREKKHLHRHMMYHLDGNSHFRHLNVPRPYACRECGRTFRDRNSLLKHMIIHQERRQKLMEEIRELKELQDEGRSARLQCPQCVFGTNCPKTFVQHAKTHEKDKRYYCCEECNFMAVTENELECHRGIAHGAVVKCPMVTSDIAQRKTQKKTFMKDSVVGSSKKSATYICKMCPFTTSAKSVLKKHTEYLHSSSCVDSFGSPLGLDKRKNDILEEPVDSDSTKTLTKQQSTTFPKNSALKQDVKRTFGSTSQSSSFSKIHKRPHRIQKARKSIAQSGVNMCNQNSSPHKNVTIKSSVDQKPKYFHQAAKEKSNAKANSHYLYRHKYENYRMIKKSGESYPVHFKKEEASSLNSLHLFSSSSNSHNNFISDPHKPDAKRPESFKDHRRVAVKRVIKESKKESSVGGEDLDSYPDFLHKMTVVVLQKLNSAEKKDSYETEDESSWDNVELGDYTTQAIEDETYSDINQEHVNLFPLFKSKVEGQEPGENATLSYDQNDGFYFEYYEDTGSNNFLHEIHDPQHLETADASLSKHSSVFHWTDLSLEKKSCPYCPATFETGVGLSNHVRGHLHRAGLSYEARHVVSPEQIATSDKMQHFKRTGTGTPVKRVRKAIEKSETTSEHTCQLCGGWFDTKIGLSNHVRGHLKRLGKTKWDAHKSPICVLNEMMQNEEKYEKILKALNSRRIIPRPFVAQKLASSDDFISQNVIPLEAYRNGLKTEALSVSASEEEGLNFLNEYDETKPELPSGKKNQSLTLIELLKNKRMGEERNSAISPQKIHNQTARKRFVQKCVLPLNEDSPLMYQPQKMDLTMHSALDCKQKKSRSRSGSKKKMLTLPHGADEVYILRCRFCGLVFRGPLSVQEDWIKHLQRHIVNANLPRTGAGMVEVTSLLKKPASITETSFSLLMAEAAS |  | binds

Results are given in words; binding and its absence hold for the method and conditions named. Binding seen in cells or lysates may run through a third protein. A yes stands for co-enrichment or nearness to the bait. Other partners may have been found. For some assays here: Where a sequence is shown, tags or fusion partners need not be part of it.
